Consider 30 targets from the supplement of paper PMC10849652.

By UniProt entry, the sequences of proteins in these tests, tags left out. Where a name states a change or a piece, a line headed by the entry shows the natural chain unless it says otherwise.
UniProt Q9Y3B9: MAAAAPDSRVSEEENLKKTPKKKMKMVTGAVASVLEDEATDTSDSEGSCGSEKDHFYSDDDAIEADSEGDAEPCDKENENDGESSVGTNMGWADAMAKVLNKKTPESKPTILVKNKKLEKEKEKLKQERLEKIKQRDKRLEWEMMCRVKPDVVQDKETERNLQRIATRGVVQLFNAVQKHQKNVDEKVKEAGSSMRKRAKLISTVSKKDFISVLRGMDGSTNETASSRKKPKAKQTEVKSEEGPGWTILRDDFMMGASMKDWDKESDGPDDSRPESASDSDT
UniProt Q9NR31: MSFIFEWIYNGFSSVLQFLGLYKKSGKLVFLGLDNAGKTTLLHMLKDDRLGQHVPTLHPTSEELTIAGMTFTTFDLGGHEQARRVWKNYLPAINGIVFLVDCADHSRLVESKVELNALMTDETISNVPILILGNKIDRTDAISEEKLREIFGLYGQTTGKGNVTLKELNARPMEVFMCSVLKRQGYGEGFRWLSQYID
UniProt P31949: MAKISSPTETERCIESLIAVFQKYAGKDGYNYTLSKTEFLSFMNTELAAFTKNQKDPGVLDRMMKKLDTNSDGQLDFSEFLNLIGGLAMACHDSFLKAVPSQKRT
UniProt Q9Y6B6: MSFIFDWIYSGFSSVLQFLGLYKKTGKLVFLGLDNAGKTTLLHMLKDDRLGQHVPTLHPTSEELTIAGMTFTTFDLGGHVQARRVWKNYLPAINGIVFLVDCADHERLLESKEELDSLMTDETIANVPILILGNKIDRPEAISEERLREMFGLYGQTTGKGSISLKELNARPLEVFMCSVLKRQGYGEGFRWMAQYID
UniProt Q8WU76: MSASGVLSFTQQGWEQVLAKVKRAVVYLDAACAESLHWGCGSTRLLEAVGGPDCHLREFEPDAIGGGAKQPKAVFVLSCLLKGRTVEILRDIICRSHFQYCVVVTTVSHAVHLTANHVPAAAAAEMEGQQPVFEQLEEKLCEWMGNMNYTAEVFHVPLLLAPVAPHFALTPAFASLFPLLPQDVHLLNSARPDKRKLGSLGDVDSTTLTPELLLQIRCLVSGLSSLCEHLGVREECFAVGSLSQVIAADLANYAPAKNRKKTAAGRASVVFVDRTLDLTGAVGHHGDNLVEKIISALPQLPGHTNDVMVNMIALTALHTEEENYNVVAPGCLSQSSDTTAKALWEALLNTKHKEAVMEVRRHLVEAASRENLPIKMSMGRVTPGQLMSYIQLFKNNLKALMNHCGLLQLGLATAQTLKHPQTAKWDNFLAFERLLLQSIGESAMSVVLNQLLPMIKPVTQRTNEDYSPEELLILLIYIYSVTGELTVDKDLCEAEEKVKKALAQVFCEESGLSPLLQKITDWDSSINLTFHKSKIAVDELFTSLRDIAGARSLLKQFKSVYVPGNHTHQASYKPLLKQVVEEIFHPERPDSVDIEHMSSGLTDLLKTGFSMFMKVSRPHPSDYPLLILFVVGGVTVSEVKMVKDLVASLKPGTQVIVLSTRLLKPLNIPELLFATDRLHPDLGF
UniProt Q8WTV0: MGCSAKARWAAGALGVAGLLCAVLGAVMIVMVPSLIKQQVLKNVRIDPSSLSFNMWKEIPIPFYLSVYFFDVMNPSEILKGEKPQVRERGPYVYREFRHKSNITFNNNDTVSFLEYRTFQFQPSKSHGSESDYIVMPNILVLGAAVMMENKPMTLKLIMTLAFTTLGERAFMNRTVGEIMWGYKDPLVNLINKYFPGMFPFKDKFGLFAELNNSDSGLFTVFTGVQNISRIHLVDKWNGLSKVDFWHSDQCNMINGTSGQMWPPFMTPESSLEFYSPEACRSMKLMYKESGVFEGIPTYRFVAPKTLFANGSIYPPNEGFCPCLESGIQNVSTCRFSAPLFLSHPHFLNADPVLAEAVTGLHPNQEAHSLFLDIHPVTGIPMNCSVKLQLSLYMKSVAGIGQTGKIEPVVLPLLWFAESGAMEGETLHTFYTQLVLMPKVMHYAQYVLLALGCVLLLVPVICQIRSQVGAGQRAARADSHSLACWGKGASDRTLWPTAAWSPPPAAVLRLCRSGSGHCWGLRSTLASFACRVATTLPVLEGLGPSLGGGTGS
UniProt Q9BRK5: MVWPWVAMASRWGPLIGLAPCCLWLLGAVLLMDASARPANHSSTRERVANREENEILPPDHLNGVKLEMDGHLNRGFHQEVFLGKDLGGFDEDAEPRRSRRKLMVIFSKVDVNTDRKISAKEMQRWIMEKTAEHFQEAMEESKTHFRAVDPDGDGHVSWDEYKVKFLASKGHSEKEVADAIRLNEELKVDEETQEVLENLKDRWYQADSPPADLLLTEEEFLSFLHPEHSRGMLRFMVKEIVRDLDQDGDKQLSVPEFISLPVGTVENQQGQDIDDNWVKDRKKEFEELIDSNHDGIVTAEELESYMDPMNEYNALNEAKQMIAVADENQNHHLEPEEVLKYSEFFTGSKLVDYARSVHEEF
UniProt O75880: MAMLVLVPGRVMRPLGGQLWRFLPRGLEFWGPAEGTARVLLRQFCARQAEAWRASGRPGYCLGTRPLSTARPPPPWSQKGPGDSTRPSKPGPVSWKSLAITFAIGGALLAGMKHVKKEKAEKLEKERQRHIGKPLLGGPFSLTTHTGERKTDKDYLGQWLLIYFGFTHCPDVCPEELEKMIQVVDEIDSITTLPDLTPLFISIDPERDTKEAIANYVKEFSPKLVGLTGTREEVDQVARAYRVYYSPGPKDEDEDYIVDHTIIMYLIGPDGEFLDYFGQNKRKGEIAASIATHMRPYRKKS
UniProt Q96KG9: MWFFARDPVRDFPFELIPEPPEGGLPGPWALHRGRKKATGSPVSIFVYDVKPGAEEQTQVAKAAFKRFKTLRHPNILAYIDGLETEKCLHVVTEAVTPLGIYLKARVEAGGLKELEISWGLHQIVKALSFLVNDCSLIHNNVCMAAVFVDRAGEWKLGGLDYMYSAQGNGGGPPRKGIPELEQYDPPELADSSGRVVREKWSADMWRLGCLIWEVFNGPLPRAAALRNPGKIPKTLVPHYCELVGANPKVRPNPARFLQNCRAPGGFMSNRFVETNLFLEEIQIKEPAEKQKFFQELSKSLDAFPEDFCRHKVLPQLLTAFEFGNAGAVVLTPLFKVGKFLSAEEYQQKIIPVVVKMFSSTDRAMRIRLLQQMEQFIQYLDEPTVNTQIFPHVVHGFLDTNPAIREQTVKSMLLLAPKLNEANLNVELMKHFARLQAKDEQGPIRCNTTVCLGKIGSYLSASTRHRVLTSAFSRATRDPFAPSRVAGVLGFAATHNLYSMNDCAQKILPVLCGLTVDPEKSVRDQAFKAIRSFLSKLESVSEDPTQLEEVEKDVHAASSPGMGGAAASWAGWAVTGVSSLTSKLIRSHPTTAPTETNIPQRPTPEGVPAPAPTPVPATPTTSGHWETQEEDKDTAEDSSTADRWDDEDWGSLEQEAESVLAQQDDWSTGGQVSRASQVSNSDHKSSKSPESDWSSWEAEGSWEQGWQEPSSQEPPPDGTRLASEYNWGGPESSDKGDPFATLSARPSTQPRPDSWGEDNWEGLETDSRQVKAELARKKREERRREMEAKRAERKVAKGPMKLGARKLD
UniProt Q9Y265, whole entry, looked up: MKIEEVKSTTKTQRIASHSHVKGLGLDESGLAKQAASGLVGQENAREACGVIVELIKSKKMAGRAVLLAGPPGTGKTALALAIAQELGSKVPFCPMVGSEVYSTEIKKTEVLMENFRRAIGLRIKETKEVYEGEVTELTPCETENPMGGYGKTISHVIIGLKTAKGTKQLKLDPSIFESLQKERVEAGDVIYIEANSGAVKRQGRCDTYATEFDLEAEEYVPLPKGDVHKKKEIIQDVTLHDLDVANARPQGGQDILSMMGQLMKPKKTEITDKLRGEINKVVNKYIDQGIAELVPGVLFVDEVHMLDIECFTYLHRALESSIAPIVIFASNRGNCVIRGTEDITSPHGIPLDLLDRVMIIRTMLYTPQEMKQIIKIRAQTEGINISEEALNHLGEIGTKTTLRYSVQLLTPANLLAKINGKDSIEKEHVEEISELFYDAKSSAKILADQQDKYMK
UniProt Q9NRP4: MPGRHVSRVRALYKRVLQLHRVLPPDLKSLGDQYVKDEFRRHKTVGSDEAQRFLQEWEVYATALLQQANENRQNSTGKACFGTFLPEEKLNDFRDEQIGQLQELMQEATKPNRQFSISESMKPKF
UniProt A3KN83: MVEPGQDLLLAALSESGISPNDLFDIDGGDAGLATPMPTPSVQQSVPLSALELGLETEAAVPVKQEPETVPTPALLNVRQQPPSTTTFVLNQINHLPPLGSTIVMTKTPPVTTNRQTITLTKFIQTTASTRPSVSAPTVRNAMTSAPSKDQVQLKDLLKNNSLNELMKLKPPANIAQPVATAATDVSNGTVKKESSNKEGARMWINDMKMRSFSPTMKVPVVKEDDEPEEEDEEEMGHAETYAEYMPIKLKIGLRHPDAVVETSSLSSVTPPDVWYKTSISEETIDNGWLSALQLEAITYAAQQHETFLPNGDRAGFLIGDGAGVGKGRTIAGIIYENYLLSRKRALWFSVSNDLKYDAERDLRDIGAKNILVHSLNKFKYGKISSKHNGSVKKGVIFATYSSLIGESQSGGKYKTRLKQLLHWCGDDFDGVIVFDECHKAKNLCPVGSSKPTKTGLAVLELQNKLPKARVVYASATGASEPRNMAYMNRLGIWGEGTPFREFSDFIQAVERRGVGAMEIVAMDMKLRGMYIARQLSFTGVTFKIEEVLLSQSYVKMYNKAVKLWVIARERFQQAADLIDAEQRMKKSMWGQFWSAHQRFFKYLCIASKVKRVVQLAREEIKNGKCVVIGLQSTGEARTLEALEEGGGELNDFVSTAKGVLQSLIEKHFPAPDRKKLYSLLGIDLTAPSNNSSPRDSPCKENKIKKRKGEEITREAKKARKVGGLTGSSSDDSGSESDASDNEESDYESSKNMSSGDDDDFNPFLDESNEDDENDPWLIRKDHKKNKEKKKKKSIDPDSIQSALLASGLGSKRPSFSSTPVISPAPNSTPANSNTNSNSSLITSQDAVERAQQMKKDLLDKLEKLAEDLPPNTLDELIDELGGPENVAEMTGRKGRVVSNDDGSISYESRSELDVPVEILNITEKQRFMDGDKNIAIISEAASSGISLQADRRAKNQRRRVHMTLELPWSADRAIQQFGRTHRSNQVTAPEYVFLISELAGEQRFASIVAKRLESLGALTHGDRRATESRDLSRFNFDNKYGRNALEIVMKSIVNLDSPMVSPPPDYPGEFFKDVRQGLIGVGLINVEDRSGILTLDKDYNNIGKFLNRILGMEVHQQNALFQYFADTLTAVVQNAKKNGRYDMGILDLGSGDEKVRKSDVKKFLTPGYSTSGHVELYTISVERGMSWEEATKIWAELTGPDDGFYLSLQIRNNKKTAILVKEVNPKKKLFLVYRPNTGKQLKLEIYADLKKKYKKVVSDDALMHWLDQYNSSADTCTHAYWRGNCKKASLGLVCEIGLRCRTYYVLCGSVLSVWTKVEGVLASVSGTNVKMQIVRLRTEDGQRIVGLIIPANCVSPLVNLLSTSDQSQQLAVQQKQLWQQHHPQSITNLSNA
UniProt P25815: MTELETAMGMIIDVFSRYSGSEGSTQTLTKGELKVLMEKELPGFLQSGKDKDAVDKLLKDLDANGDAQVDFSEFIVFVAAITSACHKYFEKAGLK
UniProt P22307: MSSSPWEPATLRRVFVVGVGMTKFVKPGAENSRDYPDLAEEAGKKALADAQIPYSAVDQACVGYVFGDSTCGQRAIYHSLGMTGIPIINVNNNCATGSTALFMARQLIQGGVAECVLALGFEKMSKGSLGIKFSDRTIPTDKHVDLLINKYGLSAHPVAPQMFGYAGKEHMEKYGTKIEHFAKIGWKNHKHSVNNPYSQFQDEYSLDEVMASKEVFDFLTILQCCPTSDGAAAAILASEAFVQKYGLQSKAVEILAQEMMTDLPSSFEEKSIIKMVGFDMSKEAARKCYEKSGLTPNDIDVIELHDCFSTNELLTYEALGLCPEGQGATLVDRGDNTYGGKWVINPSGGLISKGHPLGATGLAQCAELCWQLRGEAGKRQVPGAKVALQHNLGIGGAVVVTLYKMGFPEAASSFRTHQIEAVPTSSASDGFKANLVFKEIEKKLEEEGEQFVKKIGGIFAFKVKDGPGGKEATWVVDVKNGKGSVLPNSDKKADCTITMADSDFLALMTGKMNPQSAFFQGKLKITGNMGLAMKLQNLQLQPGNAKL
UniProt Q14108: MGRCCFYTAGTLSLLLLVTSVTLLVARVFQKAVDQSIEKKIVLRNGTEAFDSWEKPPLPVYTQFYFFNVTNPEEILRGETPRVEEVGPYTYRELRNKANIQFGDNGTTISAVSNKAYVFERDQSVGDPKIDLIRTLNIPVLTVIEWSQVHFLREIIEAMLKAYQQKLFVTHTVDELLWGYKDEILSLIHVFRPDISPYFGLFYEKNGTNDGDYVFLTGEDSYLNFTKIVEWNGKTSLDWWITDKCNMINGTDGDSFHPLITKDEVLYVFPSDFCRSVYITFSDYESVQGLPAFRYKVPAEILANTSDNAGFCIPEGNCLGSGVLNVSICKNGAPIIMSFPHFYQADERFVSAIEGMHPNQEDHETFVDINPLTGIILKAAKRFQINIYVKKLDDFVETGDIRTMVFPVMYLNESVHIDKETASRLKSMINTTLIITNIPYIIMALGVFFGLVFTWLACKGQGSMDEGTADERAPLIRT

Some of the results follow.

Compound in the first assay: C[C@H](C1=CC=C(C=C1)C(=O)NC2=C3C=CNC3=NC=C2)N
Kind of assay: log2 fold change, soluble protein after heating vs DMSO (PISA); higher = thermal stabilisation; K562 cells, 10 uM, 30 min; active = over 0.2 and 3.5 SD of the protein, either way, in both replicates (recomputed). The procedure, abridged:
(§1)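 Soluble protein was quantified by TMTpro 16plex LC-MS/MS after channel sums were equalised. It was obtained as the supernatant after 21,000xg for 90 min from pooled aliquots of K562 cells (2×10^6 cells/mL, 10 μM compound, 30 min) heated for 3 min across 48°C-58°C and extracted in PBS with 0.5% NP-40 at 4°C. Thermal stability values are relative to control samples and come from duplicates. They are given as log2 fold changes.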
With RRP15 (UniProt Q9Y3B9), the log2 fold change is inactive: -0.057.

As to SBF1 isoform 4 (UniProt O95248), the log2 fold change is inactive: 0.149.

Consider SARG (UniProt Q9BW04), for which the log2 fold change was inactive: 0.047.

Regarding SAR1A (UniProt Q9NR31), the log2 fold change was inactive: -0.004.

Turning to S100A11 (UniProt P31949), the log2 fold change is inactive: -0.072.

Take SAP30BP (UniProt Q9UHR5): the log2 fold change is inactive: -0.081.

SAR1B (UniProt Q9Y6B6): the log2 fold change was inactive: -0.028.

Compound in the next assay: C[C@H](Nc1ncnc2nc[nH]c12)c1cc2cccc(Cl)c2c(=O)n1-c1ccccc1 [duvelisib]
The assay is described as above. The procedure, abridged:
as §1
For SCFD2 (UniProt Q8WU76), the log2 fold change was inactive: -0.066.

As to SCARB1 isoform 2 (UniProt Q8WTV0), the log2 fold change was inactive: 0.093.

For the target RWDD1 (UniProt Q9H446), the log2 fold change was inactive: 0.041.

Consider SCIN (UniProt Q9Y6U3), for which the log2 fold change is inactive: -0.015.

As to SDF4 (UniProt Q9BRK5), the log2 fold change was inactive: 0.017.

For RYBP (UniProt Q8N488), the log2 fold change is inactive: -0.036.

With SCO1 (UniProt O75880), the log2 fold change is inactive: 0.026.

SACS (UniProt Q9NZJ4): the log2 fold change was inactive: 0.093.

For RTRAF (UniProt Q9Y224), the log2 fold change is inactive: -0.103.

Turning to SCYL1 (UniProt Q96KG9), the log2 fold change was inactive: -0.013.

For S100A6 (UniProt P06703), the log2 fold change is inactive: 0.134.

As to SDHA (UniProt P31040), the log2 fold change was inactive: 0.

As to RSBN1L (UniProt Q6PCB5), the log2 fold change was inactive: -0.18.

Take RUVBL1 (UniProt Q9Y265): the log2 fold change was inactive: 0.02.

In the case of SDHAF3 (UniProt Q9NRP4), the log2 fold change was inactive: 0.183.

As for SBNO1 (UniProt A3KN83), the log2 fold change was inactive: 0.011.

Regarding SCLY (UniProt Q96I15), the log2 fold change is inactive: 0.047.

Turning to S100P (UniProt P25815), the log2 fold change is inactive: 0.338.

As to SCP2 (UniProt P22307), the log2 fold change is inactive: 0.045.

Take SCAMP4 (UniProt Q969E2): the log2 fold change is inactive: 0.055.

On to SCARB2 (UniProt Q14108), for which the log2 fold change is inactive: 0.066.

Consider SCAP (UniProt Q12770), for which the log2 fold change was inactive: 0.04.

In the case of SEC24D isoform 2 (UniProt O94855), the log2 fold change is inactive: 0.007.

As for RRP15 (UniProt Q9Y3B9), the log2 fold change is inactive: -0.077.

For the target SBF1 isoform 4 (UniProt O95248), the log2 fold change was inactive: -0.188.

Take SARG (UniProt Q9BW04): the log2 fold change was inactive: 0.027.

Take SAR1A (UniProt Q9NR31): the log2 fold change is inactive: 0.023.

S100A11 (UniProt P31949): the log2 fold change is inactive: 0.056.

Turning to SAP30BP (UniProt Q9UHR5), the log2 fold change was inactive: -0.025.

Take SAR1B (UniProt Q9Y6B6): the log2 fold change was inactive: 0.033.

Compound in a further assay: Cc1cc(Nc2cc(CN3CCOCC3)c3nc(C)c(Cc4ccc(Cl)cc4F)n3n2)n[nH]1 [gandotinib]
The description is as above. The procedure, abridged:
as §1
For the target SCFD2 (UniProt Q8WU76), the log2 fold change was inactive: -0.129.

Turning to SCARB1 isoform 2 (UniProt Q8WTV0), the log2 fold change is inactive: -0.032.

For RWDD1 (UniProt Q9H446), the log2 fold change is inactive: -0.047.

As to SCIN (UniProt Q9Y6U3), the log2 fold change is inactive: 0.005.

SDF4 (UniProt Q9BRK5): the log2 fold change is inactive: 0.042.

Take RYBP (UniProt Q8N488): the log2 fold change was inactive: 0.123.

In the case of SCO1 (UniProt O75880), the log2 fold change is inactive: -0.008.

In the case of SACS (UniProt Q9NZJ4), the log2 fold change is inactive: 0.022.

Regarding RTRAF (UniProt Q9Y224), the log2 fold change was inactive: 0.013.

SCYL1 (UniProt Q96KG9): the log2 fold change is inactive: -0.083.

For S100A6 (UniProt P06703), the log2 fold change is inactive: 0.039.

SDHA (UniProt P31040): the log2 fold change is inactive: 0.019.

Turning to RSBN1L (UniProt Q6PCB5), the log2 fold change was inactive: 0.21.

RUVBL1 (UniProt Q9Y265): the log2 fold change is inactive: 0.036.

With SDHAF3 (UniProt Q9NRP4), the log2 fold change is inactive: -0.082.

SBNO1 (UniProt A3KN83): the log2 fold change was inactive: 0.

As for SCLY (UniProt Q96I15), the log2 fold change was inactive: 0.072.

Turning to S100P (UniProt P25815), the log2 fold change is inactive: 0.227.

Take SCP2 (UniProt P22307): the log2 fold change is inactive: -0.012.

With SCAMP4 (UniProt Q969E2), the log2 fold change was inactive: 0.134.

On to SCARB2 (UniProt Q14108), for which the log2 fold change was inactive: 0.027.

As to SCAP (UniProt Q12770), the log2 fold change is inactive: 0.03.

In the case of SEC24D isoform 2 (UniProt O94855), the log2 fold change is inactive: -0.073.

Consider RRP15 (UniProt Q9Y3B9), for which the log2 fold change was inactive: 0.117.

Take SBF1 isoform 4 (UniProt O95248): the log2 fold change was inactive: -0.005.

As for SARG (UniProt Q9BW04), the log2 fold change is inactive: 0.017.

Take SAR1A (UniProt Q9NR31): the log2 fold change is inactive: -0.024.

Take S100A11 (UniProt P31949): the log2 fold change was inactive: 0.079.

For the target SAP30BP (UniProt Q9UHR5), the log2 fold change was inactive: 0.

For the target SAR1B (UniProt Q9Y6B6), the log2 fold change was inactive: -0.09.

Compound in a further assay: Cc1cc(Nc2cc(N3CCN(C)CC3)nc(Sc3ccc(NC(=O)C4CC4)cc3)n2)n[nH]1 [tozasertib]
The assay is described as above. In short, it runs like this: as §1
Regarding SCFD2 (UniProt Q8WU76), the log2 fold change is inactive: 0.148.

With SCARB1 isoform 2 (UniProt Q8WTV0), the log2 fold change was inactive: -0.012.

Take RWDD1 (UniProt Q9H446): the log2 fold change was inactive: 0.036.

On to SCIN (UniProt Q9Y6U3), for which the log2 fold change was inactive: 0.123.

Turning to SDF4 (UniProt Q9BRK5), the log2 fold change is inactive: 0.004.

With RYBP (UniProt Q8N488), the log2 fold change is inactive: -0.007.

With SCO1 (UniProt O75880), the log2 fold change is inactive: -0.02.

For the target SACS (UniProt Q9NZJ4), the log2 fold change was inactive: -0.001.

On to RTRAF (UniProt Q9Y224), for which the log2 fold change is inactive: 0.043.

For SCYL1 (UniProt Q96KG9), the log2 fold change was inactive: -0.009.

Turning to S100A6 (UniProt P06703), the log2 fold change was inactive: 0.025.

SDHA (UniProt P31040): the log2 fold change is inactive: -0.008.

Regarding RSBN1L (UniProt Q6PCB5), the log2 fold change is inactive: 0.075.

In the case of RUVBL1 (UniProt Q9Y265), the log2 fold change was inactive: -0.006.

As for SDHAF3 (UniProt Q9NRP4), the log2 fold change was inactive: -0.035.

For the target SBNO1 (UniProt A3KN83), the log2 fold change is inactive: -0.016.

Turning to SCLY (UniProt Q96I15), the log2 fold change is inactive: -0.018.

With S100P (UniProt P25815), the log2 fold change is inactive: 0.018.

On to SCP2 (UniProt P22307), for which the log2 fold change is inactive: -0.01.

SCAMP4 (UniProt Q969E2): the log2 fold change is inactive: -0.006.

Take SCARB2 (UniProt Q14108): the log2 fold change was inactive: -0.003.

Turning to SCAP (UniProt Q12770), the log2 fold change is inactive: -0.095.

As to SEC24D isoform 2 (UniProt O94855), the log2 fold change is inactive: -0.014.

RRP15 (UniProt Q9Y3B9): the log2 fold change is inactive: 0.026.

For the target SBF1 isoform 4 (UniProt O95248), the log2 fold change is inactive: -0.067.

Regarding SARG (UniProt Q9BW04), the log2 fold change was inactive: -0.041.

On to SAR1A (UniProt Q9NR31), for which the log2 fold change was inactive: -0.024.

S100A11 (UniProt P31949): the log2 fold change is inactive: 0.035.

As to SAP30BP (UniProt Q9UHR5), the log2 fold change was inactive: 0.019.

Turning to SAR1B (UniProt Q9Y6B6), the log2 fold change was inactive: 0.017.
